# Measurements: the supplement of paper PMC10338343
# ± gives the standard deviation. Only a part is listed here, and it is no random draw. Many entries were measured with a wide error.
# Test system: MILI (PIWIL2) piRISC loaded with L1MC piRNA (26 nt)
# Assay: pre-steady-state target cleavage rate (min^-1); MIWI and MILI are mouse PIWI proteins and EfPiwi is from a freshwater sponge; tags in brackets are library labels; higher = faster piRNA-guided slicing of the target
# Conditions: guide: L1MC piRNA 5'p-UAACUAAAUACUAUGCAAGCUGUAGG; auxiliary factor: 500 nM mouse GTSF1
# Procedure, shortened: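 Cleave-'n-Seq reactions paired 0.1 nM transcribed, DNA-blocked target RNA library with 1 nM active affinity-purified piRISC holding one synthetic guide, plus or minus 500 nM GTSF1 partner protein, in HEPES–potassium acetate buffer at 33 °C for 0–8 or 0–960 min. After sequencing of uncleaved targets and normalisation to depth and weakly complementary targets, the pre-steady-state cleavage rate was taken from a burst-and-steady-state fit. Three trials were pooled, and k3 was capped at 0.0001 min^-1.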
row,Sequence,pre-steady-state target cleavage rate
1,UCCUGGAUGUCGAACGGUAGUAUUUAGUUA,0.000153 ± 0.03
2,UCCUGGAUGUCGAACCAUAGUAAUUUGUUA,0.000389 ± 0.018
3,UCCUGGAUGUCGAACGUAUCUAUUCUAGUUA,0.000188 ± 0.038
4,UCCUGGAUGUCGAAGCUUAGUAUUUACUUA,0.000134 ± 0.07
5,UCCUGCUACAGCUUGGAUAGUAUUUAGUUA,0.296 ± 0.017
6,UCCUGGAUGUCGAACCAUAGUUUAUAGUUA,0.000324 ± 0.019
7,UCCUGGAUGUCGAACCAUAGUAUUUAGUA,0.000189 ± 0.017

# Same assay, conditions: guide: L1MC piRNA 5'p-UAACUAAAUACUAUGCAAGCUGUAGG; auxiliary factor: none (no GTSF1)
row,Sequence,pre-steady-state target cleavage rate
1,UCCUGGAACAGCUUGCAUACAAUUUACAAA,0.000184 ± 0.014
2,UCCUGGAUGUCGAACCAUACUAUUUAGUAA,0.00024 ± 0.016
3,UCCUGGAUGUCGAACCAUAGUAUUUGUUA,0.000219 ± 0.025
4,UCCUGGAUCAGCAACCAUAGUAUUUAGUAA,0.000878 ± 0.0068
5,UCCUGGUACAGCUUGCAAUGUAUUUUCAAA,0.00107 ± 0.0076
6,UCCUGGAACAGCUUGCUAUGUAUUUAGUAA,0.00121 ± 0.0047
7,UCCUGGAUGUCGAACCAUAGUAUUAUCUUA,0.000189 ± 0.02
8,UCCUGCUACAGCUUGCAUAGUAUUAUCUAA,0.000942 ± 0.0053
9,UCCUGGAUGUCGAACCUUACUAUUUAGUUA,0.00028 ± 0.012
10,UCCUGGUACAGCUUGCUAUAGUAUUUAGUUA,0.00179 ± 0.0038
11,UCCUGGAUGUCCUUGCAUAGAAUUUAGUAA,0.0011 ± 0.0039
12,UCCUGGAUGUCGAACGUUAGUGUUUAGUUA,0.000349 ± 0.012
13,UCCUGGAUGUCCUUGCAUUGUAUUUACUUA,0.00168 ± 0.004
14,UCCUGGAUGAGCAAGCAUAGUAUUUACAAA,0.00016 ± 0.02
15,UCCUGGAUGUCGAAGCAUAGAUAAAUCAAA [g11:g16:cont:t1A],0.00019 ± 0.023
16,UCCUGGAUGUGCUUCGAUAGUAUUUAGUAA,0.0012 ± 0.0056
17,UCCUCCUACAGCUUGCAUAGUUAAUAGAAA,0.000854 ± 0.0069

# Single entries from the results shown:
# pre-steady-state target cleavage rate, UCCUGGAACAGCUUGCAUACAAUUUACAAA is entered as 0.000184 ± 0.014
# pre-steady-state target cleavage rate, UCCUGGAUGUGCUUCGAUAGUAUUUAGUAA is entered as 0.0012 ± 0.0056

# Next part:

row,Sequence,pre-steady-state target cleavage rate
1,UCCUGGAUGUCCUACCAUAGUAUUUAGUAA,0.00059 ± 0.0095
2,UCCUGGAUGUCGAACGUAAGUUAUUAGUUA,0.000235 ± 0.021
3,UCCUGGUACAGCUUGCAUAGUAUUUAUUA,0.00176 ± 0.0054
4,UCCUGCUACAGCUUGCAUAGUAUUAUGAAA,0.00108 ± 0.0054
5,UCCUGGAUGUGCUUCGAUAGUAUUUAGAAA,0.000618 ± 0.0088
6,UCCUGGAUGUCGAACGAUAGUUUUAAGUUA,< 0.0001
7,UCCUGGAUGUCGAACCAUAUAUUUAGUUA,0.000168 ± 0.03
8,UCCUGGAUGUCCUAGCAUAGUAUUUAGUAA,0.00189 ± 0.0037
9,UCCUGGAUGUCGUAGCAUAGUAUUUAGUAA,0.00189 ± 0.0043
10,UCCUGGAUCAGGAAGCAUAGUAUUUAGAAA,0.000747 ± 0.006
11,UCCUGGAUGUCGUUGCAUAGAAUUUAGUUA,0.00248 ± 0.0028
12,UCCUGGAUGUCCUUCGAUAGUAUUUAGUAA,0.000512 ± 0.011
13,UCCUGGUACUGCUUGCAUAGUAUUUUCAAA,0.0013 ± 0.0054
14,UCCUGCUACAGCUUGCUUAGUAUUUACAAA,0.00108 ± 0.004
15,UCCUGGAUGUCGAACGUAAGUUUUUAGUUA,0.000183 ± 0.022
16,UCCUGGUACAGCUUCCAUAGUAUUUAGAUA,0.000759 ± 0.01
